In article doi:10.1101/2022.12.29.522265:
These are yes or no findings as the source states them, for the method shown. Some entries that bind do so weakly or less than the wild type. Sequences can lack the tags named with a protein.

B1: GFP-Bqt4C^369-425 (domain or fragment, UniProt O60158 369-425)
chain: SSPKSKKRSREDFEENEDYNAMVPVKRSRITKLESEVYYEKRKVRALGGIAIGLGVG

Biological target: T1, Bqt3, full-length, fused to the DNA-binding domain (S. pombe) (UniProt O74510)
T1 sequence: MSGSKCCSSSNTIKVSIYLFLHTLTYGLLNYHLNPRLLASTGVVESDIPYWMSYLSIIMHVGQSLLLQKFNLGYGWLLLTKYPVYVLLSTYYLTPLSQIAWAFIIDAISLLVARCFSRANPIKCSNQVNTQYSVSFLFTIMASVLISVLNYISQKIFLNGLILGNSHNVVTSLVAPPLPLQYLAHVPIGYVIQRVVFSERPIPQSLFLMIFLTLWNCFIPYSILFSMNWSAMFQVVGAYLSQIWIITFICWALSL
Assay: two-hybrid

Row | Binder | binding
1 | ALGGIAIGLGVGAILPFLF (domain or fragment, UniProt O60158 414-432) [GFP-Bqt4C^414-432 (TMD alone)] | binds
2 | B1 | no binding
